Binding data for 1 molecule are collected here from patent US7657380.

In this assay the target is EGFR extracellular domain (R&D Systems) (UniProt P00533). Kind of assay: SPR, Fab over EGFR on CM5 chip. For orientation: SPR reads the build-up and loss of mass on a sensor chip optically.

Results are given in words; binding and its absence hold for the method and conditions named. Some results given as binding are weak or reduced against the parent protein; the word gives no strength.

B1: ICR62 L2/H9 Fab (Fab, V domains shown)
VH: QVQLQQSGPGLVKPGASVKVSCKGSGFTFTDYKIHWVRQAPGKSLEWMGYFNPNSGYSTYNEKFQGRVTITADKSTDTAYMELSSLRSEDTAVYYCTRLSPGGYYVMDAWGQGTLVTVSS
VL: DIQMTQSPSSLSASVGDRVTITCRASQNINNYLNWYQQKPGKAPKRLIYNTNNLQTGIPSRFSGSGSGTDYTLTISSLQPEDFATYFCLQHNSFPTFGAGTKLEIK
As to B1, the binding entry was “binds”.
